# Percent effect of library compounds

The chains behind the UniProt entries cited, without tags or fusion partners. Residues count along the entry.
UniProt Q4DA54, 1-478: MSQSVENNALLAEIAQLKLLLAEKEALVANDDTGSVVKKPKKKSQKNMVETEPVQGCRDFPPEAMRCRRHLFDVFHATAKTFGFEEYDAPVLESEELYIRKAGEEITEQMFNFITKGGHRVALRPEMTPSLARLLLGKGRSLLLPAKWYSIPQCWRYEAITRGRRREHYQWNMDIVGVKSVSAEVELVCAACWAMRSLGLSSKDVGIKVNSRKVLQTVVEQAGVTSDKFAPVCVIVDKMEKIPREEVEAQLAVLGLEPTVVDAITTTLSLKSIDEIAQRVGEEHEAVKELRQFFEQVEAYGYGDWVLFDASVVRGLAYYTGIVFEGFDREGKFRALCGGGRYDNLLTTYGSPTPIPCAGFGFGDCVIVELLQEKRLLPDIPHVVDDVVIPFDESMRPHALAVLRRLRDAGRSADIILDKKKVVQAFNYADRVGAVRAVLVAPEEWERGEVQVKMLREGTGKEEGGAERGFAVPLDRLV

From ChEMBL document CHEMBL3988442, “University of Dundee, Small-Polar-MMV Screening Library” (2021).

Values are the deposited “Percent Effect”, in %.
How 0% and 100% were set is not recorded. Most values in the screen are low, and negative values occur.
Compounds were drawn at random from those tested, without regard to their results.

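Enzyme assay of histidyl-tRNA synthetase; the read-out is not stated. Target: Histidine-tRNA ligase, Trypanosoma cruzi CL Brener (UniProt Q4DA54). Tested at 30 µM. Direction is inferred from retests: higher values go with stronger inhibition. Size under these conditions: about 69,000 compounds, about 31 of them at 50% or above in at least one test.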

COCCCN1CCCC(c2nccn2CC2CCC2)C1 (configuration not stated) read 7.035%.
COCCCNCc1cc(O)c2cc(C)cc(C)c2n1 read 6.14%.
COc1c(CNCCC(=O)NC2CCCCC2)c(C(C)C)nn1C read 6.358%.
Cc1ccnc(N2CCC(C(N)=O)CC2)n1 read -5.65%.
Clc1ccc(-n2cnnc2CCCN2CCOCC2)cc1 read 7.2%.
O=C(c1ccco1)N1CCOCC2(C1)CN(c1ccccn1)C(=O)CO2 (configuration not stated) read 5.714%.
c1cc2c(cc1CN1C[C@@H]3COC[C@@H](N4CCCC4)[C@@H]3C1)OCO2 read 5.882%.
COCCCNC(=O)CN(C)C(=O)c1cc(Cl)ccc1O read 7.289%.
Cc1noc(-c2cccnc2N(C)Cc2cscn2)n1 read 4.202%.
Cc1ccc(S(=O)(=O)N2CCN(CCCO)CC2)s1 read 12.12%.
O=C(Cc1ccccn1)N1C[C@H](OCc2cccnc2)[C@H]2COC[C@H]21 read 0%.
Cc1ccc(OCCCC(=O)NC(C)c2ccc(S(N)(=O)=O)cc2)cc1 (configuration not stated) read 0%.
CC(=O)N1C[C@H](NS(=O)(=O)c2cccc(Cl)c2)[C@@H](C(C)C)C1 read 1.031%.
N#Cc1c(-c2ccccc2)csc1N read -1.754%.
CC(C(=O)NCCOc1ccc2c(c1)CCC2)n1cncn1 (configuration not stated) read 0%.
Cc1ccc(CN2CCC3(CCCN3C(=O)C(C)C)CC2)o1 read 8.738%.
Cc1nc(N2CCC(C(O)c3nccn3C)CC2)c2cccnc2n1 (configuration not stated) read 9.827%.
Fc1ccc(CNCc2nnc3n2CC(C(F)(F)F)CC3)cc1 (configuration not stated) read 4.819%.
COc1cc(N2CCC3(CCCN3Cc3cnn(C)c3)CC2)ncn1 read 4.813%.
Cc1ccccc1CN1CCCN(C2CCOC2=O)CC1 (configuration not stated) read 5.263%.
Cc1cncc(C(=O)N2CCCC(O)(CN(C)C)CC2)c1 (configuration not stated) read -3.867%.
CC(C)C(=O)N1CCC2(CC1)[C@@H]1CN(C(=O)N(C)C)C[C@@H]1C(=O)N2C read 4.854%.
Cn1ccnc1C(=O)N1CCCC(Cn2cc(CO)nn2)C1 (configuration not stated) read 4.386%.
Fc1cnc(N2CCCC3(COCCN(c4nccs4)C3)C2)nc1 (configuration not stated) read 9.091%.
FC(F)(F)c1cccc(N2CCC(NCc3cccnc3)CC2)c1 read 9.827%.
Cc1ccc(CN2CC[C@]3(C[C@H](OCc4ccccn4)CO3)C2)o1 read 4.878%.
Cc1nc(CCCNC(=O)Nc2ccc(F)cc2F)n[nH]1 read 7.921%.
Cc1nc(-c2ccc(CC(=O)N3CCN(C(=O)C(C)C)CC3)cc2)cs1 read 10.87%.
Cc1cnn(C2CN(CC(=O)NCCc3cccs3)C2)c1 read 2.312%.
Cn1cc(NC(=O)NC2CCCN(c3ccccc3Cl)C2=O)cn1 (configuration not stated) read 4.598%.

Some entries from above, unchanged:

* O=C(Cc1ccccn1)N1C[C@H](OCc2cccnc2)[C@H]2COC[C@H]21 : 0%
* COCCCNC(=O)CN(C)C(=O)c1cc(Cl)ccc1O : 7.289%
* Cc1nc(CCCNC(=O)Nc2ccc(F)cc2F)n[nH]1 : 7.921%